# According to patent publication US20090286738A1, “Gene Regulation” (ST. GEORGE'S ENTERPRISES LIMITED, priority 2005, published 2009):
# “Also recorded” adds a separate entry of the source. Part of at least one peptide drawing is inferred or uncertain, most often the ends.
# What was measured:
# [1] = system: binding of HOXD9 to PBX; assay: Immunoprecipitation with anti-PBX antibody, probed for HOXD9; format: cell-based, murine; details: B16 cells, 60 μM
# [2] = system: HOX/PBX/DNA complexes; assay: Band shift assay, protein extracted from treated B16 tumours; format: in vivo, mice; details: tumours treated for two hours
# Procedure: Double stranded oligodexoynucleotide probes were incubated in protein extracted from B16 tumours. One of these probes (HP) contained a HOX/PBX consensus binding region (bold)—5′ CTGTTTGATT TATTTGTTTA 3′. A second, control probe (CP) contained an altered HOX/PBX binding site that is not predicted to bind HOX and PBX proteins—5′ CTGTTACTGA CGATTGTTTA 3′. […] The mobility of CP was unchanged by incubating with the protein extract (lane 11). […] U, untreated; C, CX2Arg9(2D) treated; H, HXArg9(2D) treated; +HP, the HP probe was added to the lysates with an excess of unlabelled probe as shown (0, 5 fold, or 25 fold); +CP, control probe added to lysates; ‘+anti PBX’, anti-PBX antibody added to lysate; ‘+block pep’, a blocking peptide was added to the lysate that blocks anti-PBX antibody from binding to PBX.
# In order to assess whether the hexapeptide could block HOX/PBX binding in vivo, tumours were treated with HXArg9 for two hours and then used to produce nuclear lysates.
# [3] = system: HOX/PBX/DNA complexes; assay: Band-shift assay, extracts of cultured B16 cells; format: cell-based, murine; details: 60 μM, one hour
# [4] = system: K562 human chronic myeloid leukaemia cells; assay: Living and dead K562 cells after 3 hours (FIG. 8); format: cell-based; details: K562, 60 μM
# [5] = system: cFOS protein in B16F10 cells; assay: Western analysis of cFOS protein; format: cell-based, murine; details: 60 μM, two hours
# [6] = system: B16 murine melanoma cells; assay: Living and dead B16 cells after 3 hours (FIGS. 2A, 9); format: cell-based
# Procedure: In FIG. 2A the peptides as indicated were applied to the cells at a concentration of 60 μM. The number of living and dead cells were assessed after 3 hours. Black bars=number of cells dead. White bars=number of cells alive.
# (§1) The peptides as indicated were applied to the cells at a concentration of 60 μM (FIG. 6A) or 6 μM (FIG. 6B). In both experiments the HXArg9, CX1Arg9 and CX2Arg9 peptides used were the (2D) variant peptides in which the N- and C-terminal amino acids are in the D conformation and all remaining amino acids are in the L conformation. The number of living and dead cells were assessed after 3 hours. Black bars=% or number of cells dead. White bars=% or number of cells alive.
# The HXArg9 peptide used was the (2D) variant peptide in which the N- and C-terminal amino acids are in the D conformation and all remaining amino acids are in the L conformation. HXArg9 was applied to the cells at a variety of concentrations (μM), and the number of dead and living cells was assessed after 3 hours. Black bars=% cells dead. White bars=% cells alive.
# (§2) Cell lines were seeded at 4×10^4 cells/ml in liquid culture system made of RPMI-1640 medium (Life Technologies, UK) supplemented with Foetal Calf Serum (10% Sigma Aldrich) and penicillin/streptomycin (1%, Sigma) and at least in duplicate. […] Cultured cells were then assessed for cell viability/enumeration using trypan blue exclusion (Sigma Aldrich).
# [7] = system: B16 cells; assay: Apoptosis of B16 cells (microscopy, Hoechst, Annexin V FACS); format: cell-based, murine; details: for apoptosis (Annexin V, FACS): B16F10, 60 μM, two hours
# Procedure: FIG. 5(b): Light micrographs of B16 cells treated with 60 μM HXArg9(2D) (HXR9) or CX2Arg9(2D) (CXR9) for two hours. Scale bar=40 μm.
# FIG. 5(c) Transmission electron micrographs of B16 cells treated with 60 μM HXR9 or CXR9 for two hours. Scale bar=[…].
# FIG. 5(d) FACS sorting of B16 cells with Annexin. Cells were treated as indicated above each plot. The lower left hand quadrant represents normal, viable cells. The bottom and top right hand quadrants represent cells in early and late apoptosis, respectively, and the top left hand quadrant represents cells in necrosis.
# Apoptotic morphology was determined using scanning electron microscopy and fluorescence microscopy. Changes in nuclear morphology were assessed by fixing B-16 cytospins with ice-cold methanol at room temperature for five minutes. The fixed cells were stained with Hoechst 33258 (2 μg/ml) (Sigma) and mounted using VECTASHIELD® mounting medium (Vector) and analyzed by fluorescence microscopy (Nikon Eclipse TE 2000-S).
# An additional sign of apoptosis is the appearance of phosphatidylserine in the cell membrane (Koopman, G. et al. Blood 84, 1415-1420 (1994)). This can be detected by fluorescencently labeled Annexin V protein and cell sorting using FACS.
# This is a specific inhibitor of the caspase proteases, which are key components of the apotopic pathway (Zhu, H., et al. FEBS Lett. 374, 303-308 (1995)).
# [8] = system: malignant cell lines (B16 mouse melanoma, LNCAP human prostate cancer, K562); assay: Activity of peptides on different malignant cell lines, living and dead cells after 3 hours (FIGS. 6 to 8); format: cell-based; details: 60 μM or 6 μM, 3 hour exposures, prostate cancer and leukaemia cells
# Procedure: as §1
# as §1, with “7A)” for “6A)”, “7B).” for “6B).”, “White bars=% or number of cells alive.” left out
# The peptides as indicated were applied to the cells at a concentration of 60 μM. […] The number of living and dead cells were assessed after 3 hours. […]
# as §2, with “Aldrich). […]” for “Aldrich).”
# [9] = system: binding of PBX to glucocorticoid receptor (GR); assay: Immunoprecipitation with anti-PBX antibody, probed for GR; format: cell-based, murine; details: B16 cells, 60 μM
# [10] = system: B16 cells; assay: Gene transcription in B16 cells (microarray, QPCR); format: cell-based, Mouse; details: 60 μM, two hours
compound,measurement,setting,value
"CSCC[C@H](NC(=O)[C@H](Cc1c[nH]c2ccccc12)NC(=O)[C@@H]1CCCN1C(=O)[C@H](Cc1ccc(O)cc1)NC(=O)[C@H](N)Cc1c[nH]c2ccccc12)C(=O)N[C@@H](CCCCN)C(=O)N[C@@H](CCCCN)C(=O)N[C@@H](Cc1c[nH]cn1)C(=O)N[C@@H](Cc1c[nH]cn1)C(=O)N[C@@H](CCCNC(=N)N)C(=O)N[C@@H](CCCNC(=N)N)C(=O)N[C@@H](CCCNC(=N)N)C(=O)N[C@@H](CCCNC(=N)N)C(=O)N[C@@H](CCCNC(=N)N)C(=O)N[C@@H](CCCNC(=N)N)C(=O)N[C@@H](CCCNC(=N)N)C(=O)N[C@@H](CCCNC(=N)N)C(=O)N[C@H](CCCNC(=N)N)C(=O)O [HXArg9(2D), WYPWMKKHHRRRRRRRRR]",binding of PBX to HOXD9 (recovery of HOXD9),[1],block the interaction between PBX and HOX; also recorded: blocks the binding of PBX to HOXD9
same,binding of tumour protein extract to HOX/PBX consensus probe,[2],prevents the formation of HOX/PBX/DNA complexes in tumours
same,binding of extract proteins to HOX/PBX consensus probe (HP),[3],prevent the formation of HOX/PBX dimers and their subsequent binding to DNA; also recorded: prevents the formation of HOX/PBX/DNA complexes in cultured B16 cells
same,activity compared with L isomer form,[4],equivalent activity to the L isomer form
same,amount of cFOS protein,[5],significantly reduced; also recorded: significant reduction in the amount of cFOS protein
same,activity in vitro compared with HXP4,[6],equivalent activity in vitro to HXP4
same,cell morphology (light micrographs),"[7]; 60 μM, 2 hours",notable change in morphology including a reduction in dendritic processes
same,genome degradation and ultrastructure,"[7]; 60 μM, 2 hours",significant degradation of the genome
same,"apoptosis (Annexin V, FACS)",[7],significant proportion of cells were in either early or late phases of apoptosis
same,"nuclear morphology, Hoechst staining",[7]; B16 cytospins,large number of HXArg9(2D)-treated cells displaying nuclear apoptotic morphology
same,"effect on living/dead cells, cell proliferation",[8],sufficient to ablate the majority of cells
same,binding of PBX to GR,[9],"indeed, it is not; also recorded: not to GR"
same,"number of genes with increase in transcription (microarray, probability value <0.05)",[10]; Mouse Genome 430A 2.0 Array,22
same,"transcripts of Fos, Jun, Dusp1 and Atf1 (QPCR)",[10]; B16 cells,significantly upregulated
"CSCC[C@@H](N)C(=O)N[C@@H](CS)C(=O)N[C@@H](C)C(=O)N[C@@H](C)C(=O)NCC(=O)N[C@@H](CC(=O)O)C(=O)N[C@@H](CC(=O)O)C(=O)N[C@@H](C)C(=O)N[C@@H](CC(C)C)C(=O)N[C@@H](CCCNC(=N)N)C(=O)N[C@@H](CCCNC(=N)N)C(=O)N[C@@H](CCCNC(=N)N)C(=O)N[C@@H](CCCNC(=N)N)C(=O)N[C@@H](CCCNC(=N)N)C(=O)N[C@@H](CCCNC(=N)N)C(=O)N[C@@H](CCCNC(=N)N)C(=O)N[C@@H](CCCNC(=N)N)C(=O)N[C@H](CCCNC(=N)N)C(=O)O [CX2Arg9(2D), MCAAGDDALRRRRRRRRR, reference compound]",binding of PBX to HOXD9 (recovery of HOXD9),[1],permits the recovery of HOXD9
same,binding of tumour protein extract to HOX/PBX consensus probe,[2],caused a mobility shift in HP
same,binding of extract proteins to HOX/PBX consensus probe (HP),[3],caused a mobility shift in HP
same,binding of extract proteins to HOX/PBX consensus probe (HP),[3]; listed as CXArg9(2D),bound to the probe
same,"apoptosis (Annexin V, FACS)",[7],did not cause apoptosis
same,proliferation,[7]; B16 cells,no effect on proliferation
